These are yes or no findings as the source states them, for the method shown. Binding seen in cells or lysates may run through a third protein. Some entries that bind do so weakly or less than the wild type. Tags and fused reporters may be left off the sequences shown.
Target: 3HA-3FLAG-tagged SKP1 (UniProt P63208)
Test: co-IP

Sequences of proteins named here, by UniProt entry; tags and fusion partners are left off.
UniProt P63208: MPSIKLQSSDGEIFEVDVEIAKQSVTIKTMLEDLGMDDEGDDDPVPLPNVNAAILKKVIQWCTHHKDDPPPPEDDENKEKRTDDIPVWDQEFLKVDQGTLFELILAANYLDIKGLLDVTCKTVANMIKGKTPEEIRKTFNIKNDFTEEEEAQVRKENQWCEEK

B1: 6Myc-tagged FBXL5-FB2 (protein, UniProt Q9UKA1 1-691)
chain: MAPFPEEVDVFTAPHWRMKQLVGLYCDKLSKTNFSNNNDFRALLQSLYATFKEFKMHEQIENEYIIGLLQQRSQTIYNVHSDNKLSEMLSLFEKGLKNVKNEYEQLNYAKQLKERLEAFTRDFLPHMKEEEEVFQPMLMEYFTYEELKDIKKKVIAQHCSQKDTAELLRGLSLWNHAEERQKFFKYSVDEKSDKEAEVSEHGLINKKLPKELLLRIFSYLNPQELCRCSQVSMKWSQLTKTGSLWKHLYPVHWARGDWYSGPATELDTEPDDEWVKNRKDESRAFHEWDEDADIDESEESAEESIAISIAQMEKRLLHGLIHNVLPYVGTSVKTLVLAYSSAVSSKMVRQILELCPNLEHLDLTQTDISDSAFDSWSWLGCCQSLRHLDLSGCEKITDVALEKISRALGILTSHQSGFLKTSTSKITSTAWKNKDITMQSTKQYACLHDLTNKGIGEEIDNEHPWTKPVSSENFTSPYVWMLDAEDLADIEDTVEWRHRNVESLCVMETASNFSCSTSGCFSKDIVGLRTSVCWQQHCASPAFAYCGHSFCCTGTALRTMSSLPESSAMCRKAARTRLPRGKDLIYFGSEKSDQETGRVLLFLSLSGCYQITDHGLRVLTLGGGLPYLEHLNLSGCLTITGAGLQDLVSACPSLNDEYFYYCDNINGPHADTASGCQNLQCGFRACCRSGE
In the case of B1, the binding is reported as “binds”.

From paper doi:10.1101/133777
